According to patent publication US20200392471:
For some assays here: A negative result means that nothing was seen under these conditions. For some assays here: Where a protein sequence is shown, tags need not be part of it. A weaker result is weaker than the reference pair of the same experiment.

By UniProt entry, the sequences of proteins in these tests, tags left out.
UniProt P19821, whole entry: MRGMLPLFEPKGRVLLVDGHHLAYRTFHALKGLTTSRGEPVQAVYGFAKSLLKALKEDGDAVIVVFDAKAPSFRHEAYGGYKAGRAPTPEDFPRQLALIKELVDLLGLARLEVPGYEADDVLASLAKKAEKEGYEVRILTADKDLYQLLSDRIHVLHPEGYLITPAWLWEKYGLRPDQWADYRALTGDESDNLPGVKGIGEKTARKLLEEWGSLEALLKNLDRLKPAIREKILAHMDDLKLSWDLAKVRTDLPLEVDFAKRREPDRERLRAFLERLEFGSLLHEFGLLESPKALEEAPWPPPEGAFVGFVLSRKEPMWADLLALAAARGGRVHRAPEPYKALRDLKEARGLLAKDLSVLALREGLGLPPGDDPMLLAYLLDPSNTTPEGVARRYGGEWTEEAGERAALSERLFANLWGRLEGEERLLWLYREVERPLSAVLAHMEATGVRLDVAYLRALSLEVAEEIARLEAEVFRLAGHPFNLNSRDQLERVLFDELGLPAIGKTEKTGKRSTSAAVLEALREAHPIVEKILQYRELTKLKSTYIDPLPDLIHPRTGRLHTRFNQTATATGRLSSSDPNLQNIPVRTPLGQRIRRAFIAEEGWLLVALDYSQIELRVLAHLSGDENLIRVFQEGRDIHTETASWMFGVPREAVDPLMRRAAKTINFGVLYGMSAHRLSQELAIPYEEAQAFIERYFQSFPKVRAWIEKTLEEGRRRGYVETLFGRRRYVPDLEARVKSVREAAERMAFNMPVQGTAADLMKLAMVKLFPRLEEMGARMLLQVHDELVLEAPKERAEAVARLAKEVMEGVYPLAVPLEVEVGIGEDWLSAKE

Assays:
[1] = biological target: Taq DNA polymerase (UniProt P19821); assay: inhibition of the protein; settings: purified recombinant protein, folded or branched DNA
[2] = biological target: T1, Afu Uracil-DNA Glycosylase (UniProt O28007); assay: activity assay; settings: purified recombinant protein, protein details: New England Biolabs M0279S
T1 sequence (looked up, limits assumed): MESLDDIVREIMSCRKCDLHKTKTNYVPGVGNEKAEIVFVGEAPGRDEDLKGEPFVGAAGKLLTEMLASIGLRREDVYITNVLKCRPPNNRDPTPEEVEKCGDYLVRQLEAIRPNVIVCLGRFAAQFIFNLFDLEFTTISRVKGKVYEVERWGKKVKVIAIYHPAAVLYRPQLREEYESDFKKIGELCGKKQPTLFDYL

AAATTATATTCTTAGCGTTTTATAATTTTAAAACGAAGTTTTA [circular aptamer SEQ ID NO:13 (unmodified)]
functional effect of the aptamer ([1]; 80 nM aptamer blocks PCR, 5 mM MgCl2, 50 mM KCl, pH 8.0, protein details: GenScript E00007): active | activity on this sequence ([2]; no dU, pattern stated similar to noncircular SEQ 5, folded or branched DNA): not active

AAATTATATTCTTAGCGTTUTATAATTTTAAAACGAAGTTTTA [circular aptamer SEQ ID NO:20]
functional effect of the aptamer ([1]; deoxyuridine at loop position 12, incomplete inactivation at 80 nM, protein details: GenScript E00007): less active | activity on this sequence ([2]; deoxyuridine at loop position 12, Taq reactivation, pattern stated similar to noncircular set, folded or branched DNA): active

AAATTATATTCTTAGCGTUTTATAATTTTAAAACGAAGTTTTA [circular aptamer SEQ ID NO:19]
functional effect of the aptamer ([1]; deoxyuridine at loop position 11, incomplete inactivation at 80 nM, least inhibitory of the set, protein details: GenScript …): less active | activity on this sequence ([2]; deoxyuridine at loop position 11, Taq reactivation, pattern stated similar to noncircular set, folded or branched DNA): active

AAATTATATTCTTAGCGUTTTATAATTTTAAAACGAAGTTTTA [circular aptamer SEQ ID NO:18]
functional effect of the aptamer ([1]; deoxyuridine at loop position 10, 80 nM aptamer blocks PCR, protein details: GenScript E00007): active | activity on this sequence ([2]; deoxyuridine at loop position 10, effective Taq reactivation, unlike noncircular SEQ 10, folded or branched DNA): active

AAATTATATTCTUAGCGTTTTATAATTTTAAAACGAAGTTTTA [circular aptamer SEQ ID NO:17]
functional effect of the aptamer ([1]; deoxyuridine at loop position 5, 80 nM aptamer blocks PCR, protein details: GenScript E00007): active

AAATTATATTCUTAGCGTTTTATAATTTTAAAACGAAGTTTTA [circular aptamer SEQ ID NO:16]
functional effect of the aptamer ([1]; deoxyuridine at loop position 4, 80 nM aptamer blocks PCR, protein details: GenScript E00007): active

AAATTATATUCTTAGCGTTTTATAATTTTAAAACGAAGTTTTA [circular aptamer SEQ ID NO:15]
functional effect of the aptamer ([1]; deoxyuridine at loop position 2, 80 nM aptamer blocks PCR, protein details: GenScript E00007): active | activity on this sequence ([2]; deoxyuridine at loop position 2, Taq reactivation, pattern stated similar to noncircular set, folded or branched DNA): active

AAATTATAUTCTTAGCGTTTTATAATTTTAAAACGAAGTTTTA [circular aptamer SEQ ID NO:14]
functional effect of the aptamer ([1]; deoxyuridine at loop position 1, incomplete inactivation at 80 nM, protein details: GenScript E00007): less active | activity on this sequence ([2]; deoxyuridine at loop position 1, Taq reactivation, pattern stated similar to noncircular set, folded or branched DNA): active

TGCGCGATTTAAAGCGATTCTTAGCGTTTTCGCTTTAAATCGCGCAT [aptamer SEQ ID NO:5 (noncircular, unmodified)]
functional effect of the aptamer ([1]; 80 nM aptamer blocks PCR, 5 mM MgCl2, 50 mM KCl, 20 mM Tris pH 8.0, 60 C extension, protein details: GenScript E00007): active | activity on this sequence ([2]; no dU, no Taq reactivation in PCR, folded or branched DNA): not active

TGCGCGATTTAAAGCGATTCTTAGCGTUTTCGCTTTAAATCGCGCAT [aptamer SEQ ID NO:11]
functional effect of the aptamer ([1]; deoxyuridine at loop position 11, 80 nM aptamer blocks PCR, 5 mM MgCl2, 50 mM KCl, pH 8.0, protein details: GenScript E00007): active | activity on this sequence ([2]; deoxyuridine at loop position 11, UDG reactivates aptamer-blocked Taq in PCR, folded or branched DNA): active

TGCGCGATTTAAAGCGATTCTTAGCGUTTTCGCTTTAAATCGCGCAT [aptamer SEQ ID NO:10]
functional effect of the aptamer ([1]; deoxyuridine at loop position 10, 80 nM aptamer blocks PCR, only partly relieved by UDG, protein details: GenScript E00007): active | activity on this sequence ([2]; deoxyuridine at loop position 10, incomplete Taq reactivation, folded or branched …): less active

TGCGCGATTTAAAGCGATTCTUAGCGTTTTCGCTTTAAATCGCGCAT [aptamer SEQ ID NO:9]
functional effect of the aptamer ([1]; deoxyuridine at loop position 5, 80 nM aptamer blocks PCR, also with UDG present, protein details: GenScript E00007): active

TGCGCGATTTAAAGCGATTCUTAGCGTTTTCGCTTTAAATCGCGCAT [aptamer SEQ ID NO:8]
functional effect of the aptamer ([1]; deoxyuridine at loop position 4, 80 nM aptamer blocks PCR, also with UDG present, protein details: GenScript E00007): active

TGCGCGATTTAAAGCGATUCTTAGCGTTTTCGCTTTAAATCGCGCAT [aptamer SEQ ID NO:7]
functional effect of the aptamer ([1]; deoxyuridine at loop position 2, 80 nM aptamer blocks PCR, 5 mM MgCl2, 50 mM KCl, pH 8.0, protein details: GenScript E00007): active | activity on this sequence ([2]; deoxyuridine at loop position 2, UDG reactivates aptamer-blocked Taq in PCR, folded or branched DNA): active

TGCGCGATTTAAAGCGAUTCTTAGCGTTTTCGCTTTAAATCGCGCAT [aptamer SEQ ID NO:6]
functional effect of the aptamer ([1]; deoxyuridine at loop position 1, 80 nM aptamer blocks PCR, 5 mM MgCl2, 50 mM KCl, pH 8.0, protein details: GenScript E00007): active | activity on this sequence ([2]; deoxyuridine at loop position 1, UDG reactivates aptamer-blocked Taq in PCR, folded or branched DNA): active
